Assay results reported in US9029601B2, “Aryloxyurea compound and pest control agent” (Nippon Soda Co., Ltd., priority 2010, dated 2015).
Some entries share one result that the patent states for a list of compounds.

Tests used:
[1] = test system: adult female Tetranychus kanzawai from Okayama Prefecture; assay: Efficacy test against Tetranychus kanzawai (spray on kidney bean plant); format: in vivo; conditions: sprayed on kidney bean plant, 3 days / 14 days after spraying
[2] = test system: organic phosphorous-resistant adult female Tetranychus urticae; assay: Efficacy test against Tetranychus urticae (spray on kidney bean plant); format: in vivo; conditions: emulsion diluted to 125 ppm, sprayed on kidney bean plant; 25° C., humidity 65%; adults 3 days, egg-to-adult development 14 days after spraying

Structure (SMILES) | insect mortality rate ([1]; emulsion diluted to 500 ppm) [%] | insect mortality rate [2] [%] | insect mortality rate ([1]; emulsion diluted to 125 ppm) [%]
CCN(Oc1cc(Cl)cc(Br)c1)C(=O)NC(C)C(=O)OC (stereo not drawn) [1-131] | ≥ 90 |  | 
CCN(Oc1cc(Cl)nc(Cl)n1)C(=O)NC(C)(C)c1ccccn1 [2-72] |  | ≥ 90 | ≥ 90
CCN(Oc1ccnc2cc(Cl)ccc12)C(=O)NC(C)(C)C [2-12] | ≥ 90 |  | 
CCN(Oc1cc(Cl)c(Br)c(Cl)c1)C(=O)NC(C)(C)C(=O)NC(C)C [1-136] |  | ≥ 90 | ≥ 90
CCN(Oc1cc(Cl)cc(Br)c1)C(=O)NC(C)(C)CNC(C)=O [1-127] | ≥ 90 |  | 
CC(C)(NC(=O)N(CC1CC1)Oc1cc(Cl)cc(Br)c1)c1ccccc1 [1-80] | ≥ 90 |  | 
CCN(Oc1ccc2cnccc2c1)C(=O)NC(C)(C)c1ccccn1 [2-42] |  | ≥ 90 | ≥ 90
CCN(Oc1cc(N(C)C)cc(Cl)n1)C(=O)NC(C)(C)c1ccccn1 [2-76] |  |  | ≥ 90
CCOC(=O)C(C)(C)NC(=O)N(CC)Oc1cc(Cl)cc(Br)c1 [1-57] | ≥ 90 | ≥ 90 | 
CCN(Oc1ccc(Cl)c(C(F)(F)F)c1)C(=O)NC(C)(C)c1ccccn1 [1-198] |  | ≥ 90 | ≥ 90
CCN(Oc1cc(Cl)cc(Br)c1)C(=O)NC(C)(C)C(=O)NC(C)(C)C [1-138] |  | ≥ 90 | 
CCN(CC)C(=O)C(C)(C)NC(=O)N(CC)Oc1cc(Cl)cc(Br)c1 [1-71] | ≥ 90 | ≥ 90 | 
CCN(Oc1cc(Cl)cc(Br)c1)C(=O)NC(C)(C)c1ccccn1 [1-95] | ≥ 90 |  | 
CCN(Oc1cc(Cl)cc(Br)c1)C(=O)NC(C)(C)c1ccn(C(C)(C)C)n1 [1-223] |  | ≥ 90 | ≥ 90
CCN(Oc1cc(Cl)cc(Br)c1)C(=O)NC(C)(C)c1ncc(C)cn1 [1-232] | ≥ 90 | ≥ 90 | 
CCN(Oc1ccc(C(F)(F)F)cc1Cl)C(=O)NC(C)(C)c1ccccn1 [1-196] |  | ≥ 90 | ≥ 90
CCN(Oc1cc(Cl)nc(Cl)c1)C(=O)NC(C)(C)C [2-22] | ≥ 90 |  | 
CCN(Oc1cc(Cl)cc(Br)c1)C(=O)NC(C)(C)c1ccc(C(F)(F)F)cc1 [1-100] | ≥ 90 |  | 
CCN(Oc1cc(Cl)cc(Br)c1)C(=O)NCc1ccccn1 [1-93] |  |  | ≥ 90
CCN(Oc1cc(Cl)cc(Br)c1)C(=O)NC(C)(C)c1ccnn1CC(F)(F)F [1-225] | ≥ 90 |  | 
CCN(Oc1cc(Cl)cc(Br)c1)C(=O)NC(C)(C)c1nccnn1 [1-226] |  | ≥ 90 | ≥ 90
CCNC(=O)CC(C)(C)NC(=O)N(CC)Oc1cc(Cl)cc(Br)c1 [1-109] | ≥ 90 | ≥ 90 | 
CCN(Oc1cc(Cl)cc(Br)c1)C(=O)NC(C)(C)C=NOCc1ccccc1 [1-125] | ≥ 90 | ≥ 90 | 
CCOC(=O)C(C)(C)NC(=O)N(CC)Oc1cc(Cl)c(Br)c(Cl)c1 [1-132] |  | ≥ 90 | ≥ 90
CCN(Oc1ccc2ncc(Br)cc2c1)C(=O)N(CC)C(C)(C)C [2-5] |  |  | ≥ 90
CCN(Oc1ccccc1)C(=O)NC(C)(C)c1ccccc1 [1-46] | ≥ 90 |  | 

Structure (SMILES) | insect mortality rate ([1]; emulsion diluted to 500 ppm) [%] | insect mortality rate [2] [%] | insect mortality rate ([1]; emulsion diluted to 125 ppm) [%]
CCN(Oc1cc(Cl)cc(Br)c1)C(=O)NC(C)(C)c1cc[nH]n1 [1-217] |  | ≥ 90 | 
CCN(Oc1cc(Cl)c(Br)c(Cl)c1)C(=O)N=S(C)(=O)c1ccccc1 (stereo not drawn) [3-22] |  | ≥ 90 | ≥ 90
CCN(Oc1ccc(Cl)c(Br)c1)C(=O)NC(C)(C)c1ccccc1 [1-40] |  |  | ≥ 90
CCN(Oc1ccc(Br)c(Br)c1)C(=O)NC(C)(C)c1ccccc1 [1-39] |  | ≥ 90 | ≥ 90
CCN(Oc1cc(Cl)cc(-c2ccc(Cl)cc2)c1)C(=O)NC(C)(C)C [1-11] | ≥ 90 |  | 
CCN(Oc1cc(C(F)(F)F)ccn1)C(=O)NC(C)(C)c1ccccc1 [2-23] | ≥ 90 |  | 
CCCN(Oc1cc(Cl)cc(Br)c1)C(=O)NC(C)(C)c1ccccn1 [1-96] | ≥ 90 | ≥ 90 | 
CCN(Oc1cc(Cl)cc(Br)c1)C(=O)NC(C)(C)C(C)=NOC [1-140] | ≥ 90 | ≥ 90 | 
CCN(Oc1cc(Cl)cc(Br)c1)C(=O)NC(C)(C)c1ccc(C)cn1 [1-62] | ≥ 90 | ≥ 90 | 
CCN(Oc1cc(Cl)cc(Br)c1)C(=O)NC(C)(C)COc1ccccn1 [1-115] | ≥ 90 |  | 
CCN(Oc1cc(Br)c(OC)c(Br)c1)C(=O)NC(C)(C)c1ccccn1 [1-64] |  |  | ≥ 90
CCN(Oc1cc(Cl)cc(Br)c1)C(=O)NC(C)(C)c1cccnc1 [1-103] |  | ≥ 90 | ≥ 90
CCN(Oc1cc(Br)cc(Br)c1Br)C(=O)NC(C)(C)C [1-19] | ≥ 90 |  | 
CN(Oc1cc(Cl)cc(Br)c1)C(=O)NC(C)(C)c1ccccc1 [1-74] | ≥ 90 |  | 
CCN(Oc1cc(Cl)cc(Br)c1)C(=O)NC1CCCc2cccnc21 (stereo not drawn) [4-5] | ≥ 90 |  | 
CCN(Oc1cc(Cl)cc(Br)c1)C(=O)NC(C)(C)c1ccccc1F [1-160] |  | ≥ 90 | 
CCN(Oc1cc(Cl)cc(Br)c1)C(=O)NC(C)(C)C(=O)O [1-58] | ≥ 90 |  | 
CCN(Oc1cc(Cl)cc(Br)c1)C(=O)N=S1(=O)CCCC1 [3-2] | ≥ 90 |  | 
CCN(Oc1cc(Cl)cc(Br)c1)C(=O)NC(C)(C)c1cccnn1 [1-228] |  | ≥ 90 | ≥ 90
CCN(Oc1cc(Br)c(OCC(F)(F)F)c(Br)c1)C(=O)NC(C)(C)c1ccccn1 [1-162] |  |  | ≥ 90
C=CCOCC(C)(C)NC(=O)N(CC)Oc1cc(Cl)cc(Br)c1 [1-104] | ≥ 90 |  | 
CCN(Oc1cc(Cl)cc(C(F)(F)F)c1)C(=O)NC(C)(C)c1ccccn1 [1-191] |  | ≥ 90 | ≥ 90
CCN(Oc1cc(Cl)cc(Br)c1)C(=O)NC(Cc1ccccc1)C(=O)OC (stereo not drawn) [1-126] | ≥ 90 | ≥ 90 | 
CCN(Oc1cc(Cl)cc(Br)c1)C(=O)NC(C)(C)C(=O)Nc1ccccc1 [1-118] | ≥ 90 | ≥ 90 | 
CCN(Oc1cccc(Cl)c1)C(=O)NC(C)(C)c1ccccc1 [1-47] | ≥ 90 |  | 
CCN(Oc1cc(Cl)cc(Br)c1)C(=O)NC(C)(C)CC [1-144] | ≥ 90 |  | 

Structure (SMILES) | insect mortality rate ([1]; emulsion diluted to 500 ppm) [%] | insect mortality rate [2] [%] | insect mortality rate ([1]; emulsion diluted to 125 ppm) [%]
CCOC(=O)C(C)(C)NC(=O)N(CC)Oc1ccc(Cl)c(Cl)c1 [1-150] |  |  | ≥ 90
CCN(Oc1cc(Br)c(Cl)c(Br)c1)C(=O)NC(C)(C)c1ccccn1 [1-56] | ≥ 90 | ≥ 90 | 
CCN(Oc1ccnc2ccccc12)C(=O)NC(C)(C)C [2-34] | ≥ 90 |  | 
CCN(Oc1cc(Cl)cc(Br)c1)C(=O)N=S(C)(=O)c1ccccc1 (stereo not drawn) [3-3] | ≥ 90 | ≥ 90 | 
CCN(Oc1cc(Cl)cc(Br)c1)C(=O)NC(C)(C)c1ccccc1OC [1-102] | ≥ 90 | ≥ 90 | 
CCN(Oc1cncc(Br)c1)C(=O)NC(C)(C)c1ccccn1 [2-46] |  | ≥ 90 | ≥ 90
CCc1csc(C(C)(C)NC(=O)N(CC)Oc2cc(Cl)cc(Br)c2)n1 [1-221] |  | ≥ 90 | 
CCN(Oc1cc(Br)c(Br)c(Br)c1)C(=O)NC(C)(C)C [1-21] | ≥ 90 | ≥ 90 | 
CCN(Oc1cc(Cl)cc(Br)c1)C(=O)N=S(C)(=O)c1ccccn1 (stereo not drawn) [3-4] | ≥ 90 |  | 
CCN(Oc1ccc(C(F)(F)F)c(Cl)n1)C(=O)NC(C)(C)c1ccccn1 [2-47] | ≥ 90 | ≥ 90 | 
CC(C)(NC(=O)N(CC1CC1)Oc1cc(Cl)cc(Br)c1)c1ccccn1 [1-97] |  | ≥ 90 | ≥ 90
CCOC(=O)CC(C)(C)NC(=O)N(CC)Oc1cc(Cl)cc(Br)c1 [1-106] | ≥ 90 |  | 
CCN(Oc1ccc(Cl)cc1Cl)C(=O)NC(C)(C)C [Compound No. 1-16] | ≥ 90 |  | 
C#CC(C)(C)NC(=O)N(CC)Oc1cc(Cl)cc(Br)c1 [1-108] | ≥ 90 | ≥ 90 | 
CCN(Oc1cc(Cl)c(Br)c(Cl)c1)C(=O)NC(C)(C)C(=O)O [1-133] |  | ≥ 90 | 
CCN(Oc1cc(C(F)(F)F)ccn1)C(=O)NC(C)(C)c1ccccn1 [2-58] |  | ≥ 90 | ≥ 90
CCN(Oc1cc(Cl)cc(Br)c1)C(=O)NC(C)(C)C(=O)NC1CCCCC1 [1-137] |  | ≥ 90 | ≥ 90
CCN(Oc1cccc(Br)c1Cl)C(=O)NC(C)(C)c1ccccc1 [1-43] | ≥ 90 |  | 
CCN(Oc1cc(Cl)cc(Br)c1)C(=O)NC(C)(C)c1cccc(C)c1 [1-53] |  |  | ≥ 90
CCN(Oc1cc(Cl)cc(Br)c1)C(=O)NC(C)(C)c1cccc(C(F)(F)F)c1 [1-54] |  | ≥ 90 | 
CCN(Oc1ccccc1Cl)C(=O)NC(C)(C)c1ccccc1 [1-48] | ≥ 90 |  | 
CCN(Oc1ccc2cnccc2c1)C(=O)NC(C)(C)C [2-41] | ≥ 90 |  | 
CCN(Oc1cc(C(F)(F)F)cc(C(F)(F)F)c1)C(=O)NC(C)(C)c1ccccn1 [1-203] |  | ≥ 90 | ≥ 90
CN(Oc1cc(Cl)cc(Br)c1)C(=O)NC(C)(C)c1ccccn1 [1-94] | ≥ 90 | ≥ 90 | 
